According to the supplement of paper PMC10338343:
± gives the standard deviation. The entries are a selection whose mix differs from that of the whole data set. Many entries were measured with a wide error.

Test system: EfPiwi piRISC loaded with piRNA #1 (26 nt)
Experiment: pre-steady-state target cleavage rate (min^-1); guide: piRNA #1 5'p-UGAGGUAGUAGGUUGUAUAGUAUCCA; MIWI and MILI are mouse PIWI proteins and EfPiwi is from a freshwater sponge; tags in brackets are library labels; higher = faster piRNA-guided slicing of the target
Details: auxiliary factor: 500 nM Ephydatia muelleri Gtsf1
How it was run: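 Cleave-'n-Seq measured uncleaved targets by sequencing after a transcribed, DNA-blocked target RNA library […] was mixed with 1 nM active affinity-purified piRISC holding one synthetic guide, with or without 500 nM GTSF1 partner protein, at 33 °C in HEPES–potassium acetate buffer for 0–8 or 0–960 min. Counts were normalised to depth and to weakly complementary targets, three trials were pooled, and k3 was capped at 0.0001 min^-1. A burst-and-steady-state fit gave the pre-steady-state cleavage rate.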

Sequence	pre-steady-state target cleavage rate
GGAGACCUAUGAAUACAGACCUACUACCUCA	0.000554 ± 0.0089
GGAGACCUAUGAUUACAUCCUAGUACCUCA	0.00052 ± 0.0062
GGAGACCUAUGAUUACAACGUACAACCUCA	0.00151 ± 0.0063
GGAGAGGAUACUAUACAACCUUGAUGGAGA [g10:g25:cont:t1A]	0.00183 ± 0.003
GGAGACCUAUGAUAACAACCUAGCUACCUCA	0.000902 ± 0.0094
GGAGACCUAUGAAAACAACGUACUACCUCA	0.00101 ± 0.0076
GGAGACCUAUGAUAUGUUGCAACUACGUCA	0.000569 ± 0.0062
GGAGACCUAUGAAUACAUGCUACUACCUCA	0.00119 ± 0.0054
GGAGACCUAUGAUAUGUUCUUACUACCUCA	0.000407 ± 0.0049
GGAGACCUAUGAUUACAACCAAGUACCUCA	0.00085 ± 0.013
GGAGACCUAUGAUAUGUUGGUACUACCUACA	0.000708 ± 0.0076
GGAGACGAUACUAUACAACCUACUACCUCG [g2:g24:cont:t1G]	0.115 ± 0.037
GGAGAGGAUACUAUACAACCUAGAUCCUCA	0.00241 ± 0.0021
GGAGACCUAUCUAUACAACCUUCUACCACA	0.00131 ± 0.0058
GGAGUGGAUACUAUACAACCUACUUCCUGA	0.00267 ± 0.0023
GGAGACCUAACUAUACAACCUAGUACCUGA	0.00261 ± 0.0027
GGAGACCUAUGAUAUGUUCACUACUACCUCA	0.00146 ± 0.0033
GGAGACCUAUGAUAACAACCUAUUACCUCA	0.000222 ± 0.013
GGAGACCUAUGAUAUGUUGGUACUCCCUCA	0.000344 ± 0.0069
GGAGACCUAUGAUAUCAACAUACUACCUCA	0.00127 ± 0.005

Sequence	pre-steady-state target cleavage rate
GGAGACCUAUGAUAUGUUGCAUACUACCUCA	0.00115 ± 0.0048
GGAGACCUAUGAUAUGUUCAUACUACCUCA	0.00113 ± 0.0063
GGAGACCUAUGAUAUGUUGCUACUUACCUCA	0.000291 ± 0.01
GGAGACCUAUGAUAACAACCGUACUACCUCA	0.000798 ± 0.013
GGAGACCUAUGAAUACAACCUAGUACGUCA	0.00189 ± 0.0056
GGAGACCUAUGAUAUCAACCUACUACCCCA	0.000869 ± 0.0096
GGAGACCUAUGAAUACAUGGUACUACCUCA	0.00141 ± 0.0075
GGAGACCUAACUAUACAACCACUACCUCA	0.00546 ± 0.0044
GGAGAGGAUACUAUACAACGAUCUACCUCA	0.00102 ± 0.0033
GGAGACCUAUGAUAUGUACCUAGCUACCUCA	0.000169 ± 0.018
GGAGACCUAUGAUAUCAACCAUGUACCUCA	0.000102 ± 0.021
GGAGACCUAUGUAUACAACCAACUAGCUCA	0.000171 ± 0.024
GGAGACCUAUGAUAUCAACCUAGUACCUCA	0.000368 ± 0.0087
GGAGACCUAUGAUAUCACACCUACUACCUCA	0.000112 ± 0.019
GGAGACCUAUGAUAUGUACUUACUACCUCA	0.00171 ± 0.0052
GGAGACCUAUGAAUACAACCUAGUUCCUCA	0.000662 ± 0.0061
GGAGACCUAUGAAUACAACCCUACUACCUCA	0.00071 ± 0.0093
GGAGACCUAUCUAUACAACCUAUACCUCA	0.000529 ± 0.0094
GGAGACCUAUGAUAACAUCCAACUACCUCA	0.000357 ± 0.0064
GGAGACCUAUCUAUACAACGAUCUACCUCA	0.000833 ± 0.0084

Reformatted in markdown: part of the list above

| Sequence | pre-steady-state target cleavage rate |
| --- | --- |
| GGAGACCUAACUAUACAACCACUACCUCA | 0.00546 ± 0.0044 |
| GGAGAGGAUACUAUACAACGAUCUACCUCA | 0.00102 ± 0.0033 |
| GGAGACCUAUGAUAUGUACCUAGCUACCUCA | 0.000169 ± 0.018 |
| GGAGACCUAUGAUAUCAACCAUGUACCUCA | 0.000102 ± 0.021 |
| GGAGACCUAUGUAUACAACCAACUAGCUCA | 0.000171 ± 0.024 |
| GGAGACCUAUGAUAUCAACCUAGUACCUCA | 0.000368 ± 0.0087 |
| GGAGACCUAUGAUAUCACACCUACUACCUCA | 0.000112 ± 0.019 |
| GGAGACCUAUGAUAUGUACUUACUACCUCA | 0.00171 ± 0.0052 |
| GGAGACCUAUGAAUACAACCUAGUUCCUCA | 0.000662 ± 0.0061 |
| GGAGACCUAUGAAUACAACCCUACUACCUCA | 0.00071 ± 0.0093 |
| GGAGACCUAUCUAUACAACCUAUACCUCA | 0.000529 ± 0.0094 |
| GGAGACCUAUGAUAACAUCCAACUACCUCA | 0.000357 ± 0.0064 |
